# Reference: the supplement of paper PMC8728848
# This is one part of the list.
# B1: Flo1 (Saccharomyces cerevisiae), P32768 (protein)
# chain: SGATEACLPAGQRKSGMNINFYQYSLKDSSTYSNAAYMAYGYASKTKLGSVGGQTDISIDYNIPCVSSSGTFPCPQEDSYGNWGCKGMGACSNSQGIAYWSTDLFGFYTTPTNVTLEMTGYFLPPQTGSYTFKFATVDDSAILSVGGATAFNCCAQQQPPITSTNFTIDGIKPWGGSLPPNIEGTVYMYAGYYYPMKVVYSNAVSWGTLPISVTLPDGTTVSDDFEGYVYSFDDDLSQSNCTVPDPSNY
# What was measured:
# Experiment in all cases: glycan array binding signal (z-score within array); higher = stronger binding
# Settings in all cases: glycan notation: IUPAC condensed, linker removed
# Neu5Ac(a2-6)GalNAc = molecular target: Neu5Ac(a2-6)GalNAc
# Method in brief: (§1)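 Glycan array binding is given as a within-array Z-score, which can be read as non-binding when negative. The arrays, 3228 of them, came from the Consortium for Functional Glycomics database and were retained only where the protein sequence was available. Z-scores were averaged across arrays of the same protein sequence at different concentrations or buffers and across linkers.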
# [1] = molecular target: Neu5Ac(a2-6)GalNAc(b1-4)GlcNAc
# Method in brief: as §1
# [2] = molecular target: Neu5Ac(a2-6)GalNAc(b1-4)GlcNAc6S
# Method in brief: as §1
# [3] = molecular target: Neu5Ac(a2-6)GlcNAc(b1-4)GlcNAc
# Method in brief: as §1
# [4] = molecular target: Neu5Ac(a2-6)GlcNAc(b1-4)GlcNAc(b1-4)GlcNAc
# Method in brief: as §1
# Neu5Ac(a2-8)Neu5Ac = molecular target: Neu5Ac(a2-8)Neu5Ac
# Method in brief: as §1
# [5] = molecular target: Neu5Ac(a2-8)Neu5Ac(a2-3)Gal(b1-3)GalNAc(b1-4)[Neu5Ac(a2-3)]Gal(b1-4)Glc
# Method in brief: as §1
# [6] = molecular target: Neu5Ac(a2-8)Neu5Ac(a2-3)Gal(b1-3)GalNAc(b1-4)[Neu5Ac(a2-8)Neu5Ac(a2-3)]Gal(b1-4)Glc
# Method in brief: as §1
# [7] = molecular target: Neu5Ac(a2-8)Neu5Ac(a2-3)Gal(b1-4)Glc
# Method in brief: as §1
# [8] = molecular target: Neu5Ac(a2-8)Neu5Ac(a2-3)Gal(b1-4)GlcNAc
# Method in brief: as §1
# [9] = molecular target: Neu5Ac(a2-8)Neu5Ac(a2-3)[Gal(b1-3)GalNAc(b1-4)]Gal(b1-4)Glc
# Method in brief: as §1
# [10] = molecular target: Neu5Ac(a2-8)Neu5Ac(a2-3)[GalNAc(b1-4)]Gal(b1-4)Glc
# Method in brief: as §1
# [11] = molecular target: Neu5Ac(a2-8)Neu5Ac(a2-8)Neu5Ac
# Method in brief: as §1
# [12] = molecular target: Neu5Ac(a2-8)Neu5Ac(a2-8)Neu5Ac(a2-3)Gal(b1-4)Glc
# Method in brief: as §1
# [13] = molecular target: Neu5Ac(a2-8)Neu5Ac(a2-8)Neu5Ac(a2-3)[Gal(b1-3)GalNAc(b1-4)]Gal(b1-4)Glc
# Method in brief: as §1
# [14] = molecular target: Neu5Ac(a2-8)Neu5Ac(a2-8)Neu5Ac(a2-3)[GalNAc(b1-4)]Gal(b1-4)Glc
# Method in brief: as §1
# [15] = molecular target: Neu5Ac(a2-8)Neu5Ac(a2-8)Neu5Ac(a2-8)Neu5Ac(a2-3)[GalNAc(b1-4)]Gal(b1-4)Glc
# Method in brief: as §1
# [16] = molecular target: Neu5Ac(a2-8)Neu5Gc(a2-3)Gal(b1-4)GlcNAc
# Method in brief: as §1
# [17] = molecular target: Neu5Ac(b2-6)Gal(b1-4)GlcNAc
# Method in brief: as §1
# Neu5Ac(b2-6)GalNAc = molecular target: Neu5Ac(b2-6)GalNAc
# Method in brief: as §1
# [18] = molecular target: Neu5Ac9Ac(a2-3)Gal(b1-3)GlcNAc
# Method in brief: as §1
# [19] = molecular target: Neu5Ac9Ac(a2-3)Gal(b1-4)GlcNAc
# Method in brief: as §1
# [20] = molecular target: Neu5Ac9Ac(a2-6)Gal(b1-4)GlcNAc
# Method in brief: as §1
# [21] = molecular target: Neu5Gc(a2-3)Gal(b1-3)GlcNAc
# Method in brief: as §1
# [22] = molecular target: Neu5Gc(a2-3)Gal(b1-3)[Fuc(a1-4)]GlcNAc
# Method in brief: as §1
# Neu5Gc(a2-3)Gal(b1-4)Glc = molecular target: Neu5Gc(a2-3)Gal(b1-4)Glc
# Method in brief: as §1
# [23] = molecular target: Neu5Gc(a2-3)Gal(b1-4)GlcNAc
# Method in brief: as §1
# [24] = molecular target: Neu5Gc(a2-3)Gal(b1-4)GlcNAc(b1-3)Gal(b1-4)GlcNAc(b1-2)Man(a1-3)[Neu5Gc(a2-3)Gal(b1-4)GlcNAc(b1-3)Gal(b1-4)GlcNAc(b1-2)Man(a1-6)]Man(b1-4)GlcNAc(b1-4)GlcNAc
# Method in brief: as §1
# [25] = molecular target: Neu5Gc(a2-3)Gal(b1-4)[Fuc(a1-3)]GlcNAc
# Method in brief: as §1
# [26] = molecular target: Neu5Gc(a2-6)Gal(b1-4)GlcNAc
# Method in brief: as §1
# Neu5Gc(a2-6)GalNAc = molecular target: Neu5Gc(a2-6)GalNAc
# Method in brief: as §1
# [27] = molecular target: Neu5Gc(a2-8)Neu5Ac(a2-3)Gal(b1-4)GlcNAc
# Method in brief: as §1
# [28] = molecular target: Neu5Gc(a2-8)Neu5Gc(a2-3)Gal(b1-4)GlcNAc
# Method in brief: as §1
# [29] = molecular target: Neu5Gc(a2-8)Neu5Gc(a2-3)Gal(b1-4)GlcNAc(b1-3)Gal(b1-4)GlcNAc
# Method in brief: as §1
# [30] = molecular target: Neu5Gc(a2-8)Neu5Gc(a2-6)Gal(b1-4)GlcNAc
# Method in brief: as §1
# [31] = molecular target: Neu5Gc(b2-6)Gal(b1-4)GlcNAc
# Method in brief: as §1
binder,measurement,setting,value
B1,glycan array binding signal (z-score),Neu5Ac(a2-6)GalNAc,-0.139
same,glycan array binding signal (z-score),[1],-0.312
same,glycan array binding signal (z-score),[2],-0.376
same,glycan array binding signal (z-score),[3],-0.394
same,glycan array binding signal (z-score),[4],-0.079
same,glycan array binding signal (z-score),Neu5Ac(a2-8)Neu5Ac,-0.34
same,glycan array binding signal (z-score),[5],1.62
same,glycan array binding signal (z-score),[6],-0.152
same,glycan array binding signal (z-score),[7],-0.541
same,glycan array binding signal (z-score),[8],-0.603
same,glycan array binding signal (z-score),[9],0.328
same,glycan array binding signal (z-score),[10],-0.046
same,glycan array binding signal (z-score),[11],-0.27
same,glycan array binding signal (z-score),[12],-0.271
same,glycan array binding signal (z-score),[13],-0.551
same,glycan array binding signal (z-score),[14],-0.419
same,glycan array binding signal (z-score),[15],0.047
same,glycan array binding signal (z-score),[16],-0.252
same,glycan array binding signal (z-score),[17],-0.394
same,glycan array binding signal (z-score),Neu5Ac(b2-6)GalNAc,-0.283
same,glycan array binding signal (z-score),[18],-0.754
same,glycan array binding signal (z-score),[19],-0.483
same,glycan array binding signal (z-score),[20],-0.52
same,glycan array binding signal (z-score),[21],-0.129
same,glycan array binding signal (z-score),[22],-0.569
same,glycan array binding signal (z-score),Neu5Gc(a2-3)Gal(b1-4)Glc,1.18
same,glycan array binding signal (z-score),[23],-0.264
same,glycan array binding signal (z-score),[24],-0.814
same,glycan array binding signal (z-score),[25],-0.021
same,glycan array binding signal (z-score),[26],-0.199
same,glycan array binding signal (z-score),Neu5Gc(a2-6)GalNAc,-0.148
same,glycan array binding signal (z-score),[27],0.52
same,glycan array binding signal (z-score),[28],0.147
same,glycan array binding signal (z-score),[29],-0.661
same,glycan array binding signal (z-score),[30],0.534
same,glycan array binding signal (z-score),[31],1.14

# No new results follow: entries from further up.
binder,measurement,setting,value
B1,glycan array binding signal (z-score),[27],0.52
same,glycan array binding signal (z-score),[28],0.147
